Laboratory results from PubChem BioAssay AID2685 (National Center for Advancing Translational Sciences (NCATS), 2010).
This is one part of the list. Shown are side measurements of this screen, not its main read-out; they come without a call. Most of these compounds were active or inconclusive in the main read-out, so they are no random draw. The note in brackets gives the kind of curve behind each potency; many fits are weak.

Assay: qHTS Assay for Lipid Storage Modulators in Drosophila S3 Cells;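 for cell number change: cells counted by Cell Tracker Red CMTPX staining in the red channel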
Conditions: BODIPY lipid droplet fluorescence, 18-24 h; for cell number change: measured here: cell count max response, cells fed with added oleic acid
Procedure, shortened: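 Drosophila S3 cells got compounds at several concentrations plus oleic acid (400 uM solution). Laser-scanning cytometry with 488 nm excitation read lipid droplets at 500-530 nm and cells at 575-640 nm. Percent activity was relative to 20 uM Triacsin C.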

[1] = measured here: lipid fluorescence (Fed channel) AC50, cells fed with added oleic acid
[2] = measured here: cell number channel AC50, cells fed with added oleic acid

Row | Compound | cell number change | AC50 [1] | AC50 [2]
1 | O=C(O)C1CCN(S(=O)(=O)/C=C/c2ccccc2)CC1 | 16.4% | 25.9 µM [falling, partial curve] | 
2 | CCOc1ccc2c(c1)C(C)=CC(C)(C)N2 | -11.3% |  | 
3 | COc1ccc2sc(-c3ccccc3OC)c(C#CC(C)(C)O)c2c1 | 14% | 0.00517 µM [rising, full curve, poor fit] | 
4 | Cc1csc(SCCn2c(N3CCCC3)nc3c2c(=O)[nH]c(=O)n3C)n1 |  | 1.84 µM [rising, full curve] | 2.31 µM [rising, partial curve]
5 | CCC(=O)N1CCc2cc(S(=O)(=O)NCCC(=O)Nc3cc(C)cc(C)c3)ccc21 |  | 0.0184 µM [rising, full curve, poor fit] | 
6 | C#CCOc1ccccc1CNc1ccccc1 | 0.244% | 8.2 µM [rising, partial curve] | 
7 | Cc1ccc(C(O)P(=O)(OCCC(C)C)c2ccc(N(C)C)cc2)cc1 (stereo not given) | -36.5% |  | 
8 | CCC(C)(C(=O)NC1CCCC1)N(C(=O)c1cnccn1)c1ccccc1 (stereo not given) | 8.26% |  | 
9 | COC(=O)/C=C\C(=O)Nc1cccc([N+](=O)[O-])c1 | -37.7% | 2.59 µM [falling, full curve] | 3.66 µM [falling, full curve]
10 | COc1ccccc1NC(=O)NC1(C(=O)N2CCC(C)CC2)CCCCC1 | 7.26% | 29.1 µM [rising, single point] | 
11 | Cc1onc(-c2ccccc2)c1C(=O)NC(=S)Nc1sc2c(c1C#N)CCCC2 | -43.3% | 2.06 µM [rising, partial curve] | 1.03 µM [falling, full curve, poor fit]
12 | COc1ccc(N/C(=C/[N+](=O)[O-])SC)cc1 |  | 1.03 µM [falling, single point] | 
13 | COc1ccc(-c2nc(N)n[nH]2)cc1 | 6.29% |  | 
14 | CC(=O)c1cccc(OCc2cc(C(=O)NCc3nc(C)c(C)s3)no2)c1 | -27.2% | 6.51 µM [rising, single point] | 
15 | O=C(C1CCC(CNc2c(N3CCCCC3)c(=O)c2=O)CC1)N1CCCCC1 (stereo not given) | 5.5% |  | 
16 | CCCc1ccc(OCCNC(=O)CC)cc1 | 2.77% | 6.51 µM [rising, partial curve] | 
17 | CS(=O)(=O)c1ccc(Sc2nc3ccccc3s2)c([N+](=O)[O-])c1 | -35.3% | 2.91 µM [falling, full curve, poor fit] | 4.61 µM [falling, partial curve]
18 | Cc1[nH]c(C)c(C(=O)O)c1CNC1CCCCC1C (stereo not given) | -11.1% |  | 
19 | O=C(C1CCN(S(=O)(=O)c2ccc(F)cc2)CC1)N1CCCC(C(F)(F)F)C1 (stereo not given) |  | 0.00461 µM [falling, full curve, poor fit] | 3.66 µM [falling, partial curve]
20 | Cc1oc(C(=O)O)cc1COc1ccc2c(C)cc(=O)oc2c1 | 9.04% | 4.61 µM [falling, single point] | 

Reformatted: 2 of the compounds above.
CCCc1ccc(OCCNC(=O)CC)cc1
  cell number change: 2.77%; AC50 [1]: 6.51 µM [rising, partial curve]
CS(=O)(=O)c1ccc(Sc2nc3ccccc3s2)c([N+](=O)[O-])c1
  cell number change: -35.3%; AC50 [1]: 2.91 µM [falling, full curve, poor fit]; AC50 [2]: 4.61 µM [falling, partial curve]

Next part:

Row | Compound | cell number change | AC50 [1] | AC50 [2]
21 | O=C(O)c1ccc(CSc2nnc(-c3cccnc3)n2-c2ccc(Br)cc2)cc1 |  | 0.092 µM [rising, full curve, poor fit] | 
22 | COc1ccc(/C=N/OCC(=O)NC(c2ccccc2)c2ccccc2)cc1OC | -36% | 4.11 µM [falling, full curve] | 7.31 µM [falling, partial curve]
23 | CC(=O)Nc1ccc(S(=O)(=O)Nc2ccccc2N2CCOCC2)cc1 | -6.48% | 29.1 µM [rising, single point] | 
24 | COc1ccc(-c2nc(-c3ccccc3)ncc2S(C)(=O)=O)cc1 |  | 20.6 µM [rising, partial curve] | 
25 | O=C(Nc1cccc(F)c1)N1CC=C(c2ccc(Cl)cc2)CC1 | -66.3% |  | 32.6 µM [falling, partial curve, poor fit]
26 | Cc1nnc(-c2cnn(C)c2N)n1Cc1ccc2c(c1)OCO2 | 7.38% | 0.116 µM [rising, full curve, poor fit] | 
27 | Cc1nc2sccn2c(=O)c1S(=O)(=O)N1CCN(c2ccccc2)CC1 | -3.17% | 6.51 µM [rising, single point] | 
28 | O=C(c1cc([N+](=O)[O-])ccc1N1CCCC1)N1CCCC1 | -44.5% |  | 20.6 µM [falling, single point]
29 | COc1cc2c(cc1OC)C(c1ccc(-c3cc(Cl)ccc3Cl)o1)=NCC2 | -15% | 0.58 µM [falling, full curve] | 0.92 µM [falling, full curve]
30 | Cc1cc(/C=C2\C(=N)N3N=C(c4ccco4)SC3=NC2=O)c(C)n1Cc1ccccc1 | 0.877% |  | 0.259 µM [falling, partial curve, poor fit]
31 | NC(=O)c1ccc(NC(=O)CN2CCN(c3ccc(Cl)cc3)CC2)cc1 |  |  | 0.326 µM [rising, single point]
32 | CC(=O)Nc1ccc2nc(SCC(=O)O)sc2c1 | 3.31% |  | 
33 | CCOC(=O)n1c(=O)oc2cc(S(=O)(=O)N3CCOCC3)ccc21 | 4.56% |  | 
34 | CC(=O)NCCOc1nc(N(C)C)nc(N2CCOCC2)n1 |  | 0.651 µM [falling, single point] | 
35 | C=CCn1c(=O)c(C(=O)NC(C)c2ccccc2)c(O)c2ccccc21 (stereo not given) | -3.87% |  | 
36 | COc1ccc(OC)c(-c2nnc(-c3ccc(C)o3)o2)c1 |  | 0.58 µM [falling, single point] | 6.51 µM [rising, single point]
37 | Cc1nc2c(c3c1[nH]c1ccccc13)C(O)CC(C)(C)C2 (stereo not given) | -58.5% | 7.31 µM [falling, partial curve] | 18.4 µM [falling, single point]
38 | COC(=O)CSc1nnc(Cc2cc(=O)[nH]c(=O)[nH]2)n1-c1cccc(OC)c1 | -3.58% | 18.4 µM [falling, partial curve] | 
39 | CC(Oc1ccc(Cl)cc1Cl)C(=O)NCCCN1CCOCC1 (stereo not given) | 4.35% |  | 0.092 µM [falling, full curve, poor fit]
40 | O=S(=O)([N-]c1nc2ccccc2nc1-n1cc[n+](Cc2ccccc2)c1)c1ccc(Br)cc1 | 18.6% |  | 
